This passage reports binding results from US20090285813A1.

By UniProt entry, the sequences of proteins in these tests, tags left out.
UniProt P11836: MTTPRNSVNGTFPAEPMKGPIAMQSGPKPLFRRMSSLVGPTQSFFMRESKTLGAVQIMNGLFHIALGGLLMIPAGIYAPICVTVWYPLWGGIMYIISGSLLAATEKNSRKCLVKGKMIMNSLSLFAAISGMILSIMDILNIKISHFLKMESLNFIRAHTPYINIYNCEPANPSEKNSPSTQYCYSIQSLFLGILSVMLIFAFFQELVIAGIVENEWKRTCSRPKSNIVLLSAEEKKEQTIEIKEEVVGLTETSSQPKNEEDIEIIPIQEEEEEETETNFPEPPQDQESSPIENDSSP

Positions count from the first letter of the chain named. Results are given in words; binding and its absence hold for the method and conditions named. Some results given as binding are weak or reduced against the parent protein; the word gives no strength.

Assay [1] deals with human CD20 (human) (UniProt P11836). Briefly: anti-CD20 cellular ELISA, supernatant; rank 9 of 29. Background: In an ELISA, binding on a coated surface is turned into a signal by an enzyme label.
Assay [2] shares this target. Briefly: anti-CD20 cellular ELISA, supernatant; rank 23 of 29.
Assay [3] has the same target. As to the kind of experiment: anti-CD20 cellular ELISA, supernatant; rank 18 of 29.
The target is the same in assay [4]. As to the kind of experiment: anti-CD20 cellular ELISA, supernatant; rank 27 of 29.
Assay [5] has the same target. Briefly: anti-CD20 cellular ELISA, supernatant; rank 29 of 29.
For assay [6] the target is unchanged. As to the kind of experiment: anti-CD20 cellular ELISA, supernatant; rank 15 of 29.
Assay [7] shares this target. Briefly: anti-CD20 cellular ELISA, supernatant; rank 19 of 29.
Assay [8] shares this target. Briefly: anti-CD20 cellular ELISA, supernatant; rank 12 of 29.
The target is the same in assay [9]. As to the kind of experiment: anti-CD20 cellular ELISA, supernatant; rank 26 of 29.
The target is the same in assay [10]. Briefly: anti-CD20 cellular ELISA, supernatant; rank 11 of 29.
The target is the same in assay [11]. As to the kind of experiment: anti-CD20 cellular ELISA, supernatant; rank 13 of 29.
The target is the same in assay [12]. Briefly: anti-CD20 cellular ELISA, supernatant; rank 17 of 29.
Assay [13] shares this target. Briefly: anti-CD20 cellular ELISA, supernatant; rank 25 of 29.
For assay [14] the target is unchanged. Briefly: anti-CD20 cellular ELISA, supernatant; rank 10 of 29.
For assay [15] the target is unchanged. As to the kind of experiment: anti-CD20 cellular ELISA, supernatant; rank 21 of 29.
For assay [16] the target is unchanged. As to the kind of experiment: anti-CD20 cellular ELISA, supernatant; rank 20 of 29.
The target is the same in assay [17]. As to the kind of experiment: anti-CD20 cellular ELISA, supernatant; rank 28 of 29.

B1: anti-CD20 HuFR variant 9 (light chain BD22091, heavy chain BD20337) (antibody, human IgG1, kappa, V domains shown)
VH: QVQLVQSGAEVKKPGASVKVSCKASGYTFTSYNMHWVRQAPGQGLEWMGAIYPGNGDTSYNQKFKGRVTISADKSISTAYLQWSSLKASDTAMYYCARSHYGSNYVDYFDYWGQGTLVTVSS
VL: EIVLTQSPATLSLSPGERATLSCRASSSLSFMHWYQQKPGQPPKLLIYATSNLASGIPARFSGSGSGTEFTLTISSLQSEDFAVYYCHQWSSNPLTFGQGTKVEIKR
On to B1, for which the binding entry in assay [1] was “binds”.

B2: anti-CD20 HuFR variant 23 (light chain BD22108, heavy chain BD20337) (antibody, human IgG1, kappa, V domains shown)
VH: B1 VH
VL: DIVMTQSPLSLPVTPGEPASISCRASSSLSFMHWYQQKPGQAPRLLIYATSNLASGVPSRFSGSGSGTDFTFTISSLQPEDIATYYCHQWSSNPLTFGQGTKVEIKR
With B2, the binding entry in assay [2] is “binds”.

B3: anti-CD20 HuFR variant 18 (light chain BD22085, heavy chain BD20339) (antibody, human IgG1, kappa, V domains shown)
VH: B1 VH with Q43K, S71T, I76T, L81M, Q82E, W83L, K87R, A88S, S89E, M93V
VL: B2 VL with L9D, P12A, T14S, P15L, P18R, S20T, S22N, F72L, I82F
On to B3, for which the binding result in assay [3] is listed as “binds”.

B4: anti-CD20 HuFR variant 27 (light chain BD22109, heavy chain BD20341) (antibody, human IgG1, kappa, V domains shown)
VH: B1 VH with S71T, I76T, L81M, Q82E, W83L, K87R, A88S, S89E, M93V
VL: DIVMTQSPDSLAVSLGERATINCRASSSLSFMHWYQQKPGQPPKLLIYATSNLASGIPARFSGSGSGTDFTLTISSLEPEDFAVYYCHQWSSNPLTFGQGTKVEIKR
Take B4: the binding result in assay [4] is “binds”.

B5: anti-CD20 HuFR variant 29 (light chain BD22104, heavy chain BD20337) (antibody, human IgG1, kappa, V domains shown)
VH: B1 VH
VL: B1 VL with L4M, L13V, Q36L, P42S, K44Q, I57V, A59S, E69D, S79P, V84T
As to B5, the binding entry in assay [5] is reported as “binds”.

B6: anti-CD20 HuFR variant 15 (light chain BD22102, heavy chain BD20337) (antibody, human IgG1, kappa, V domains shown)
VH: B1 VH
VL: B1 VL with L4M, L13V, I57V, A59S, E69D, S79P, V84T
Turning to B6, the binding entry in [6] is listed as “binds”.

B7: anti-CD20 HuFR variant 19 (light chain BD22107, heavy chain BD20339) (antibody, human IgG1, kappa, V domains shown)
VH: B1 VH with Q43K, S71T, I76T, L81M, Q82E, W83L, K87R, A88S, S89E, M93V
VL: B2 VL with Q36L, A42S, R44Q, V57I, S59A, F72L, Q78E, I82F, T84V
B7: in assay [7], the binding entry was “binds”.

B8: anti-CD20 HuFR variant 12 (light chain BD22094, heavy chain BD20337) (antibody, human IgG1, kappa, V domains shown)
VH: B1 VH
VL: B2 VL with D69E, F72L, E80D, I82F
As to B8, in assay [8], the binding entry is reported as “binds”.

B9: anti-CD20 HuFR variant 26 (light chain BD22108, heavy chain BD20338) (antibody, human IgG1, kappa, V domains shown)
VH: B1 VH with Q1E, A16E, V18L, V20I, A24G, Q43K
VL: B2 VL
With B9, the binding entry in assay [9] was “binds”.

B10: anti-CD20 HuFR variant 11 (light chain BD22092, heavy chain BD20338) (antibody, human IgG1, kappa, V domains shown)
VH: B1 VH with Q1E, A16E, V18L, V20I, A24G, Q43K
VL: DIQMTQSPSSLSASVGDRVTITCRASSSLSFMHWYLQKPGQSPQLLIYATSNLASGVPDRFSGSGSGTDFTLTISSLQAEDVAVYYCHQWSSNPLTFGQGTKVEIKR
In the case of B10, the binding result in assay [10] was “binds”.

B11: anti-CD20 HuFR variant 13 (light chain BD22096, heavy chain BD20337) (antibody, human IgG1, kappa, V domains shown)
VH: B1 VH
VL: B1 VL with Q41K, P42A, I57V, A59S, S79P, E80D, V84T
As for B11, in assay [11], the binding entry is listed as “binds”.

B12: anti-CD20 HuFR variant 17 (light chain BD22104, heavy chain BD20337) (antibody, human IgG1, kappa, V domains shown)
VH: B1 VH
VL: B1 VL with L4M, L13V, Q36L, P42S, K44Q, I57V, A59S, E69D, S79P, V84T
For the molecule B12, the binding result in assay [12] is “binds”.

B13: anti-CD20 HuFR variant 25 (light chain BD22106, heavy chain BD20333) (antibody, human IgG1, kappa, V domains shown)
VH: QVQLVQSGAEVKKPGASVKVSCKASGYTFTSYNMHWVRQAPGKGLEWVGAIYPGNGDTSYNQKFKGRVTITADKSTSTAYMELSSLRSEDTAVYYCARSHYGSNYVDYFDYWGQGTLVTVSS
VL: B2 VL with D1E, M4L, L9G, S10T, P12S, V13L, T14S, P18R, S20T, I21L
Take B13: the binding result in [13] was “binds”.

B14: anti-CD20 HuFR variant 10 (light chain BD22108, heavy chain BD20337) (antibody, human IgG1, kappa, V domains shown)
VH: B1 VH
VL: B2 VL
Turning to B14, the binding result in assay [14] is “binds”.

B15: anti-CD20 HuFR variant 21 (light chain BD22103, heavy chain BD20337) (antibody, human IgG1, kappa, V domains shown)
VH: B1 VH
VL: B2 VL with Q41K, R44K, S59D, F72L, P79A, I82V, T84V
As to B15, the binding entry in [15] is recorded as “binds”.

B16: anti-CD20 HuFR variant 20 (light chain BD22100, heavy chain BD20335) (antibody, human IgG1, kappa, V domains shown)
VH: QVQLVQSGAEVKKPGASVKVSCKASGYTFTSYNMHWVRQAPGKGLEWMGAIYPGNGDTSYNQKFKGRFTISRDNAKNSLYLQMNSLRAEDTAVYYCARSHYGSNYVDYFDYWGQGTLVTVSS
VL: B10 VL with S10T, L36Q, S42A, Q44R, D59S, L72F, A79P, V82I, V84T
For the molecule B16, the binding result in assay [16] was “binds”.

B17: anti-CD20 HuFR variant 28 (light chain BD22111, heavy chain BD20336) (antibody, human IgG1, kappa, V domains shown)
VH: B16 VH with M48V
VL: B4 VL with Q41K, P42A, I57V, A59S, D69E, E78Q, E80D, V84T
For the molecule B17, in [17], the binding result is listed as “binds”.
